This assay addresses T1, Stearoyl-CoA desaturase-1 (UniProt O00767).
T1 sequence: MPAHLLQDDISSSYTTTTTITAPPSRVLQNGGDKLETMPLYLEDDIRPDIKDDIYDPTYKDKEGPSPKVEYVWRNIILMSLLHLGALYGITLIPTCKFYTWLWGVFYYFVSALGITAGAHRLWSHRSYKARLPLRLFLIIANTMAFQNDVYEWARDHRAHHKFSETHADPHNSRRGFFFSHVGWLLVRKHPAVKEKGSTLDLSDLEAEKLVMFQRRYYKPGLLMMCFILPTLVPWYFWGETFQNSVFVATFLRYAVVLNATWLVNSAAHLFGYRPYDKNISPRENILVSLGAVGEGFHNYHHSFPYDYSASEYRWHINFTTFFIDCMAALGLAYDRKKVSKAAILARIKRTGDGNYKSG
In words: co-IP; HEK293T cells transfected with the indicated plasmids (HA-SCD, FLAG-NEDD4L or truncated NEDD4L); NP-40 lysis buffer; antibodies (SCD, HA, DYKDDDDK, NEDD4L) overnight at 4 °C, protein A/G magnetic beads, immunoblot; in one panel (Fig. 4H) cells were treated with 5 µg/ml B1, said to further facilitate the interaction. (In general: Immunoblotting shows a protein as a band on a membrane.)

Protein sequences, listed by entry. Tags and fused reporters are not part of them. Lines headed by an entry give the natural chain unless they say otherwise; changes in a name come on top.
UniProt Q96PU5: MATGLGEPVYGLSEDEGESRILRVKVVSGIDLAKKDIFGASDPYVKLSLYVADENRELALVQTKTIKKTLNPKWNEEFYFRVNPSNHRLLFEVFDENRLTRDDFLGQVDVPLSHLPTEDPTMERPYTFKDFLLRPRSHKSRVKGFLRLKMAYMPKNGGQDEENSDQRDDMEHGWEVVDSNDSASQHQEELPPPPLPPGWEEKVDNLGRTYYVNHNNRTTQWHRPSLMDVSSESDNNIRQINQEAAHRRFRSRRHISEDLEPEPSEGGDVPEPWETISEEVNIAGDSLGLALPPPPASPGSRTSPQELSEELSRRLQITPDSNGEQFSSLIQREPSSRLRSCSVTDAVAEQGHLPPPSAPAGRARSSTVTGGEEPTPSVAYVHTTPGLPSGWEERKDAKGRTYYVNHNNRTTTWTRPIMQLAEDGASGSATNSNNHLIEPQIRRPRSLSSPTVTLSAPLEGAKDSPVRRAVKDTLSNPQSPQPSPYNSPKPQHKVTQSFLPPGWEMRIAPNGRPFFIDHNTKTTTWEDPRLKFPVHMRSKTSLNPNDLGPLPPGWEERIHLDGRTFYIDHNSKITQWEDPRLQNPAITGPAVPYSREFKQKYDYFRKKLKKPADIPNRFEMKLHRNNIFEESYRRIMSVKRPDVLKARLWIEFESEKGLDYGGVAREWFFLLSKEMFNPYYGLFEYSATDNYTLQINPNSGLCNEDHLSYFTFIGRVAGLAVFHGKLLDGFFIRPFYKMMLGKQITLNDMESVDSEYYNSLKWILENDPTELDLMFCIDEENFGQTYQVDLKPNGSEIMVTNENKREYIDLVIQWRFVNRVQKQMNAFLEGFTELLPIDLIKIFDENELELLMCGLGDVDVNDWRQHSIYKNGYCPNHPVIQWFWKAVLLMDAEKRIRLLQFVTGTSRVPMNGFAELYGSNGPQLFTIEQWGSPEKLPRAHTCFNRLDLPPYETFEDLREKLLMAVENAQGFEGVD

No constants are given. Whether binding was seen depends on the method and setting. In cells and extracts the contact can be indirect. Binding can be weak; no strength is given.

For the substance “WW domain of NEDD4L (Δ154–617 aa) (from UniProt Q96PU5) (domain or fragment)”, the binding result is given as “binds”.

The record behind these values is paper PMC12636167.
